Source: patent US11135192B2, “Inhibitors for treating diseases characterized by atrial enlargement or remodeling” (Novartis AG, priority 2012, dated 2021)

Test system: patients with heart failure with preserved ejection fraction
Assay: Safety and tolerability (adverse events, target dose achieved) in the same HF-PEF study
Conditions: target LCZ696 200 mg twice daily or valsartan 160 mg twice daily

CCCCC(=O)N(Cc1ccc(-c2ccccc2-c2nnn[nH]2)cc1)[C@H](C(=O)O)C(C)C [Valsartan, (S)—N-valeryl-N-{[2′-(1H-tetrazole-5-yl)-biphenyl-4-yl]-methyl}-valine, reference compound]
Target dose achieved, percent of patients: 78%
